Laboratory results from PubChem BioAssay AID1487 (National Center for Advancing Translational Sciences (NCATS), 2009).
“And” between values parts separate entries of the source, which are not always exact repeats. Identical values can stand only once. This is one part of the list. Shown are side measurements of this screen, not its main read-out; they come without a call. Most of these compounds were active or inconclusive in the main read-out, so they are no random draw. Words in brackets tell the shape of the fitted curve; partial curves, single points and poor fits give uncertain potencies.

Assay: qHTS Assay for Modulators of Lamin A Splicing
Conditions: HeLa LMNA splicing GFP/RFP minigene ratio, 48 h
In short: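 S3 HeLa stable clones carrying a lamin A-EGFP splicing minigene plus DsRed2 were seeded at 600 cells/well in Opti-MEM with 2% FBS, pin-dosed and incubated 48 h at 37°C. Acumen cytometry (488 nm) gave the GFP/RFP total-intensity ratio.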

[1] = measured here: GFP splicing reporter channel
[2] = measured here: RFP viability control channel

Row | Structure (SMILES) | AC50 [1] | AC50 [2]
1 | CN(C)CCN(Cc1ccccc1)c1ccccn1 | 0.631 µM [falling, partial curve] | 22.4 nM [rising, full curve, poor fit] and 28.2 nM [rising, full curve, poor fit]
2 | Cc1ccccc1Oc1nc(-c2ccccn2)nc2ccccc12 | 0.141 µM [falling, partial curve, poor fit] | 
3 | CC(C)(C)c1ccc(S(=O)(=O)NCCc2ccncc2)cc1 | 17.8 µM [rising, single point] | 12.6 µM [rising, partial curve]
4 | CCN=c1scc(-c2ccco2)n1/N=C/c1ccc(OC)c(O)c1 | 11.2 µM [rising, partial curve] | 12.6 µM [rising, single point]
5 | COc1ccccc1N1CCN(CCN(C(=O)C2CCCCC2)c2ccccn2)CC1 |  | 5.62 µM [falling, single point]
6 | CCOC(=O)C1=C(c2ccccc2)NC(=O)N(C(C)=O)C1c1cccc([N+](=O)[O-])c1 (stereo unspecified) | 0.0112 µM [falling, full curve, poor fit] | 
7 | CCOc1ccc(NS(=O)(=O)c2ccc3[nH]c4c(c3c2)CCCCC4)cc1 | 12.6 µM [falling, partial curve] | 12.6 µM [falling, partial curve]
8 | CC1(C)C(=O)OC(c2cccs2)C2(CCCCC2)C1=O (stereo unspecified) |  | 35.5 µM [falling, single point]
9 | Cc1cc(NCc2ccccc2)nc(-c2ccccc2O)n1 |  | 12.6 µM [rising, single point]
10 | CC(C)CCN1C(=O)c2ccc(C(=O)Nc3cccc(S(N)(=O)=O)c3)cc2C1=O |  | 35.5 µM [falling, single point]
11 | CCOC(=O)c1ccc(NC(=O)c2ccccc2N(C)S(=O)(=O)c2ccccc2)cc1 |  | 17.8 µM [rising, partial curve, poor fit]
12 | O=c1[nH]c(CN2CCN(S(=O)(=O)/C=C/c3ccccc3)CC2)nc2ccccc12 |  | 1.58 µM [rising, full curve, poor fit]
13 | CCN(CC)CCCNC(=O)Cc1csc2nc(-c3ccc(Cl)cc3)cn12 | 39.8 µM [falling, partial curve, poor fit] | 
14 | C=C(C)CN(CC)C(=O)CSc1nc(O)cc(=O)n1C1CCCC1 | 0.01 µM [falling, full curve, poor fit] | 
15 | C[C@@H](C(=O)NCCc1c[nH]c2ccccc12)[C@H]1C[C@]1(C)[C@H](NC(=O)OCc1ccccc1)c1ccccc1 |  | 12.6 µM [rising, partial curve]
16 | CC(=O)[C@H]1CC[C@H]2C3CC=C4C[C@@H](O)CC[C@]4(C)C3CC[C@]12C (stereo partly specified) | 35.5 µM [rising, single point] | 35.5 µM [rising, single point]
17 | CCCCc1ccc(C2C3=C(CC(C)(C)CC3=O)NC3=C2C(=O)c2ccccc23)cc1 (stereo unspecified) |  | 35.5 µM [rising, single point]
18 | COc1cccc(Nc2ncc3nc(-c4ccc(F)cc4)c(=O)n(C)c3n2)c1 |  | 11.2 µM [falling, partial curve]
19 | CCN1CCN(Cc2c(O)ccc3c2O/C(=C\c2ccc(C)cc2)C3=O)CC1 | 0.0112 µM [falling, full curve, poor fit] | 
20 | COc1ccc2c(c1)O[C@H](c1ccc3c(c1)OCO3)[C@@H](OC(=O)Nc1cc(OC)c(OC)c(OC)c1)C2=O | 7.94 µM [rising, partial curve] | 7.08 µM [rising, partial curve]
21 | CCCCCOC(=O)NC1CCS(=O)(=O)C1 (stereo unspecified) | 12.6 µM [rising, single point] | 
22 | CC(CCc1ccccc1)NC(=O)Cn1c(=O)nc(-c2ccccc2)c2ccccc21 (stereo unspecified) | 22.4 µM [falling, partial curve] | 
23 | COc1cc(OC)c(N(C)S(=O)(=O)c2cccc(C(=O)OCC(=O)c3c[nH]c4ccccc34)c2)cc1Cl |  | 11.2 µM [rising, partial curve]
24 | COc1ccc(NC(=S)NC(NC(=O)c2ccc(Cl)cc2Cl)C(Cl)(Cl)Cl)c([N+](=O)[O-])c1 (stereo unspecified) | 35.5 µM [rising, single point] | 20 µM [rising, single point]
25 | CCOC(=O)N1CCN(C(=O)c2ccc(CNS(=O)(=O)c3ccc(C)cc3)cc2)CC1 | 31.6 µM [rising, single point] | 
26 | CCOC(=O)/C(=C/c1ccc(OC(=O)c2ccncc2)cc1)C(C)=O | 0.355 µM [falling, full curve, poor fit] | 
27 | CN(C)C(=S)SCC(=O)Nc1cccc(C(F)(F)F)c1 | 10 µM [rising, partial curve, poor fit] | 10 µM [rising, single point]

Row | Structure (SMILES) | AC50 [1] | AC50 [2]
28 | O=C(Cc1ccc(-c2ccccc2)cc1)NCCS(=O)(=O)N1CCN(c2ccccc2)CC1 | 0.01 µM [falling, full curve, poor fit] | 
29 | O=C(CSCc1ccccc1Br)N/N=C/c1ccc(OCC(=O)N2CCCCC2)cc1 |  | 35.5 µM [rising, single point]
30 | COc1ccc(CCNC(=O)CSc2cn(Cc3cccc(C)c3)c3ccccc23)cc1OC |  | 12.6 µM [rising, partial curve]
31 | Cc1ccn2c(=O)cc(COc3cccc(NC(=O)Nc4cccc(Cl)c4C)c3)nc2c1 | 17.8 µM [falling, single point] | 22.4 µM [falling, partial curve]
32 | COc1cccc(NC(=S)NC2CC3CCCC(C2)N3CC(C)C)c1 (stereo unspecified) |  | 0.2 µM [falling, full curve, poor fit]
33 | O=C(OCC(=O)c1c[nH]c2ccccc12)c1cc(Br)ccc1O | 35.5 µM [falling, single point] | 35.5 µM [falling, partial curve]
34 | O=c1c2c(nc3c(-c4ccccc4)c[nH]n13)CCCC2 |  | 22.4 µM [rising, single point]
35 | CCOc1ccc(/C=C/C2=Cc3c(sc(NC(=O)CSc4n[nH]c(N)n4)c3C#N)C(C)(C)C2)cc1 | 15.8 µM [falling, single point] | 15.8 µM [falling, partial curve]
36 | Cn1c(SCC2CCCO2)nnc1-c1cccc([N+](=O)[O-])c1 (stereo unspecified) |  | 1.78 µM [falling, full curve, poor fit]
37 | Cc1cc(Nc2cccc(C(F)(F)F)c2)nc2ccc(NC(=O)c3cccc(Cl)c3)cc12 | 35.5 µM [falling, single point] | 
38 | Cc1sc2nc(SCC(=O)NCCO)n(-c3ccccc3)c(=O)c2c1C |  | 0.02 µM [falling, full curve, poor fit]
39 | N/C(=N\c1nc2ccccc2o1)NC(=O)C(Cc1ccccc1)N1C(=O)c2ccccc2C1=O (stereo unspecified) | 35.5 µM [rising, single point] | 35.5 µM [rising, single point]
40 | Cc1ccc(CSc2ncnc3c2cnn3Cc2ccccc2)cc1C |  | 35.5 µM [rising, single point]
41 | CC#CCN1c2ccccc2[C@]23C[C@@H](C(=O)OC)N(S(=O)(=O)c4ccc(C#N)cc4)C2=NC(C(=O)OC)=C(C(=O)OC)[C@H]13 |  | 5.62 µM [rising, single point]
42 | CN(C)Cc1ccccc1-c1nc(NC2CCNCC2)c2ccccc2n1 | 11.2 µM [falling, partial curve] | 14.1 µM [falling, partial curve]
43 | CC(Nc1c([N+](=O)[O-])c(=O)oc2ccccc12)C(Cl)c1ccccc1 (stereo unspecified) | 15.8 µM [falling, single point] | 31.6 µM [falling, single point]
44 | CC1S/C(=N/N=C/c2ccco2)N(Cc2ccccc2)C1=O (stereo unspecified) |  | 15.8 µM [rising, single point]
45 | O=C(CN1C(=O)c2cccnc2Oc2ccc(Cl)cc21)Nc1cccc(C(F)(F)F)c1 | 11.2 µM [rising, partial curve] | 22.4 µM [rising, single point]
46 | CC(C)c1ccc(NC(=S)NC2CCCCCC2)cc1 | 35.5 µM [falling, single point] | 11.2 µM [falling, partial curve, poor fit]
47 | COc1ccccc1OCC(=O)Nc1oc(-c2ccccc2)c(-c2ccccc2)c1C#N |  | 22.4 µM [rising, single point]
48 | COc1ccc(-c2c(C(C)=O)c(C)nc3sc4c(=N)n(N)cnc4c23)cc1 | 12.6 µM [rising, single point] | 12.6 µM [rising, partial curve, poor fit]
49 | O=C(NNS(=O)(=O)c1ccc(Cl)cc1)c1cc(-c2ccccc2)nc2ccccc12 |  | 22.4 µM [rising, partial curve]
50 | Cn1cc(-c2nc3cncnc3n(Cc3ccccc3Cl)c2=O)c2ccccc21 |  | 1.12 µM [falling, full curve]
51 | Cc1cc(C)n(C(C)CC(=O)Nc2ccc(C)c(N(C)C)c2)n1 (stereo unspecified) |  | 0.0178 µM [falling, full curve, poor fit]
52 | COc1ccc(NC(=O)COC(=O)c2ncc(Cl)c(Cl)c2Cl)c(OC)c1 |  | 5.62 µM [rising, single point]
53 | Fc1ccc(CNCc2ccccc2Cl)cc1 | 0.501 µM [falling, full curve, poor fit] | 
54 | O=C(NC1CCCC1)c1ccc2c(=O)n(Cc3ccccc3)c(SCc3cccc(F)c3)nc2c1 |  | 0.0251 µM [falling, full curve, poor fit]
